Our source for the binding values is paper PMC6093649.

For the test, the target named is Chp2 chromodomain with the W199A mutation (Chp2-CD-W199A) (S. pombe). The test can be described thus: ITC; MicroCal VP-ITC, 20°C; Chp2-CD protein in 20 mM KPO4 pH 6.8, 100 mM NaCl; H3K9me3 peptide injected into the protein in 1-μl aliquots at 3-min intervals; both purified. A general note: In ITC the heat of successive injections is recorded.

No constants are given. Whether binding was seen depends on the method and setting. Binding calls can cover weak binding; strength is not graded here. Tags and fused reporters may be left off the sequences shown.

With ARTKQTARKSTGGKAPRY (trimethyl-lysine at position 9 (Lys[Me]3)) [K9-trimethylated histone H3 (H3K9me3) peptide (1–18)], the binding entry is on record as “binds weakly”.
